Measurements taken from paper PMC10806188.
These are yes or no findings as the source states them, for the method shown. In cells and extracts the contact can be indirect. Some entries that bind do so weakly or less than the wild type.

Amino acid sequences for entries named in this document (tags omitted).
UniProt Q02880: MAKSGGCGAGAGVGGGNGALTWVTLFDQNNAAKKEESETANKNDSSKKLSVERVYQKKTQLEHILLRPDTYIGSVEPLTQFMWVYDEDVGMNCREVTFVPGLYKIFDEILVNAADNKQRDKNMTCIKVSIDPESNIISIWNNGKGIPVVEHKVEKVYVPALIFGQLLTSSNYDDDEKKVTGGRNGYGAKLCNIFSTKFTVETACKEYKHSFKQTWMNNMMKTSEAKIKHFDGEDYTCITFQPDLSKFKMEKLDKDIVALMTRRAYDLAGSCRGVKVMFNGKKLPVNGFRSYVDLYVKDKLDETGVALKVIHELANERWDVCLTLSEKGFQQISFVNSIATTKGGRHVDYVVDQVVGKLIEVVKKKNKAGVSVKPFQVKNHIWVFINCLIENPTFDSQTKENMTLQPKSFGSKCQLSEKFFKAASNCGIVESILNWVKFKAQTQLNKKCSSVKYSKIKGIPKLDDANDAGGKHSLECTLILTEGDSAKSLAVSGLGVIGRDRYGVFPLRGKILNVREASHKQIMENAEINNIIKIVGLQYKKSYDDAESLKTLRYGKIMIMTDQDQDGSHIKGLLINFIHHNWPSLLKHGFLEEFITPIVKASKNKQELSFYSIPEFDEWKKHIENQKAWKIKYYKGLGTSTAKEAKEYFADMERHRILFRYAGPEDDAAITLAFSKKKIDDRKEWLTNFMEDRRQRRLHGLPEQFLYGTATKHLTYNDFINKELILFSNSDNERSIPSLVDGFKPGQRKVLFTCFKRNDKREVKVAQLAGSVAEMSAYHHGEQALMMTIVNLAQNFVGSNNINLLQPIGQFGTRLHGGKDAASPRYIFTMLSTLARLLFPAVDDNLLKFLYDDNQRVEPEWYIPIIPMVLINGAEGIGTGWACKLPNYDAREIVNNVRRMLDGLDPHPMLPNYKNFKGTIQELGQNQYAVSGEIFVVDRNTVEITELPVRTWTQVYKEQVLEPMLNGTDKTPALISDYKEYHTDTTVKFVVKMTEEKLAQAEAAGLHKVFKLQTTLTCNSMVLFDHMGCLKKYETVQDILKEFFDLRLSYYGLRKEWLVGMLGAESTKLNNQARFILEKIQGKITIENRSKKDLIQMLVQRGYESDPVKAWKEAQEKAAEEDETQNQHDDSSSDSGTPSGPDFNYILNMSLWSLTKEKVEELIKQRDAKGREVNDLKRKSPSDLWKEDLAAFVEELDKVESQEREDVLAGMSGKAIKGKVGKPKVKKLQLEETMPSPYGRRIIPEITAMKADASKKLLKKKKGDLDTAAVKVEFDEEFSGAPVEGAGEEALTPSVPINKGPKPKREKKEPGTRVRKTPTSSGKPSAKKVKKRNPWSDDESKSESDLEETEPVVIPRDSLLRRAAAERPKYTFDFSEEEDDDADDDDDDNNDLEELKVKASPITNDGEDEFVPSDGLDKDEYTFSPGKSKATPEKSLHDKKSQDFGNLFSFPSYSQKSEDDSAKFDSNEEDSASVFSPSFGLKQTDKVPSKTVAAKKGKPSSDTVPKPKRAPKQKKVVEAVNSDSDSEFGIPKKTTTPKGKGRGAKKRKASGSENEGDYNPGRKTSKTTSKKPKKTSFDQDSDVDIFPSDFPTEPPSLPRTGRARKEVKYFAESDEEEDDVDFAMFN
UniProt Q00987: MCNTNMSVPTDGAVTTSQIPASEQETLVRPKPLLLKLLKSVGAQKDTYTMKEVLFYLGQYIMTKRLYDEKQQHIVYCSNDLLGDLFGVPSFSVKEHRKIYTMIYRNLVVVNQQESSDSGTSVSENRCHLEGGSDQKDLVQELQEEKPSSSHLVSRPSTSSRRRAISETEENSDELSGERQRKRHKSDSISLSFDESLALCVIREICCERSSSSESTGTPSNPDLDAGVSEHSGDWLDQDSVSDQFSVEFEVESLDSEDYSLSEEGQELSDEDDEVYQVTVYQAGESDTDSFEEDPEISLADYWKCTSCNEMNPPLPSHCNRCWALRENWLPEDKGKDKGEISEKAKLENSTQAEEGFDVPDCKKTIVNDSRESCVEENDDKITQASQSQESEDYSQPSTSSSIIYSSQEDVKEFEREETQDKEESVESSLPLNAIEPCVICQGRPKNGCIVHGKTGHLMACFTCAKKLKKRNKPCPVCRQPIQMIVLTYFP

Key:
[1] = target: Flag-tagged TOP2β (human) (UniProt Q02880); test: co-IP; HEK293 cells transfected 48 h with the Flag plasmid; IP with FLAG beads, IB; cells untreated or treated with VP-16 and MG132 (20 μM) 5 h, with ICRF-193 (50 μM) and MG132 (20 μM) 5 h, or with vehicle
Flag-tagged MDM2 = Flag-tagged MDM2 (UniProt Q00987); test: as above
[2] = target: endogenous MDM2 (human (endogenous in HEK293, H1299, A549)) (UniProt Q00987); test: co-IP; whole-cell lysates of H1299 and A549 cells; IP with MDM2 antibody or normal rabbit IgG, IB; cells untreated or treated with VP-16 and MG132 (20 μM) 5 h; A549 also with siRNA against p53

Row | binding [1] | binding (Flag-tagged MDM2) | binding [2] | Substance
1 | binds |  |  | endogenous MDM2 (from UniProt Q00987 1-491) (enzyme)
2 |  | binds | binds | endogenous TOP2β (from UniProt Q02880 1-1626) (enzyme)
